Test results reported in the supplement of paper PMC3334620.
The full ranking holds about 33,000 sequences; the median of “E-score (-0.5 to 0.5)” is about -0.016, and the highest 2% start at about 0.3. This is one part of the list.

Molecular target: T1, Yer184c (UniProt P39961)
T1 sequence: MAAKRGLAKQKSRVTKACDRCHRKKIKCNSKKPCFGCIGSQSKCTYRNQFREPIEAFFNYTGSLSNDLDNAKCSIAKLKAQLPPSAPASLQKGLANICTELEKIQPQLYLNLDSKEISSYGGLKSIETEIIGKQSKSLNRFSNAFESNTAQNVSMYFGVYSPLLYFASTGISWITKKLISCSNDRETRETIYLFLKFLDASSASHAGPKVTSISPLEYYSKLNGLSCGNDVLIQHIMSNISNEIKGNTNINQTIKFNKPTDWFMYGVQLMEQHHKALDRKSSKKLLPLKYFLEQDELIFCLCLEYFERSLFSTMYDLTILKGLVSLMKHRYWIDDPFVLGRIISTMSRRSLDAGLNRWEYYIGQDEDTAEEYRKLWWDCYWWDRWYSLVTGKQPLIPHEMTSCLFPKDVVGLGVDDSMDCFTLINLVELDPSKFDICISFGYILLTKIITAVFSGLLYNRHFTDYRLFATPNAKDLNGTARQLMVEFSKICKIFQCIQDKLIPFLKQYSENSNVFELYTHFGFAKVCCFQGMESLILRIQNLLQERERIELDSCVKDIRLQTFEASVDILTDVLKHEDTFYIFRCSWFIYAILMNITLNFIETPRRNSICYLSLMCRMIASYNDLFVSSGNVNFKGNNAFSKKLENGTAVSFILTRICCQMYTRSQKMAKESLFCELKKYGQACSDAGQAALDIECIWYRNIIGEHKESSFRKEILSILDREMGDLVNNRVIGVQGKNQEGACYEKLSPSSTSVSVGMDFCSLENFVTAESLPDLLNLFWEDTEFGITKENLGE
Experiment: PBM E-score (8-mer binding enrichment) (E-score (-0.5 to 0.5)); higher = stronger / more preferred TF binding
Settings: protein concentration: 100 nM; construct: GST-full length
How it was run: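 Detection of bound protein used fluorescent anti-GST, with scans normalised by masliner. The proteins were GST-tagged yeast transcription factors applied at about 100-200 nM to universal all-10-mer Agilent arrays made double-stranded by primer extension. Each ungapped eight-base word, pooled with its reverse complement, was scored with an E-score from the Universal PBM Analysis Suite.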

Sequence	PBM E-score
TCTGTCAA	0.0885
ATGTCCGC	-0.0241
CTGTCTGA	-0.139
GGTTAGAA	-0.166
TACTAGAA	0.0468
ATCTCGTA	-0.0757
AACGGAGT	0.312
ACGTAAGC	-0.177
GCTAGCTA	-0.0213
CGAGGTGC	0.148
GTTGCGTA	0.134
CGAAATAC	0.185
AAGCTATA	0.15
GGCTCTAA	0.0329
AGCAAATA	0.0468
CAAGGGTC	-0.0734
CGTAACGC	0.101
CCCGCTTA	-0.187
GCAGCTCC	-0.189
AGGTCAAG	-0.0601
CAGCCATG	-0.329
GGTATGAA	0.0476
GGGTTGCA	-0.136
AAGATTGC	0.0377
CTGCGTGA	-0.123

Sequence	PBM E-score
CGGTATTC	0.226
AAAGTTAT	0.134
CCAGATAG	0.00026
ATGGAGAC	-0.176
ATTATATC	0.0923
GAGCCCAA	-0.103
CATGCACC	-0.206
CTCGAGTC	-0.113
GGCAGATA	0.114
CCCACCGA	-0.117
CTATCTGA	-0.172
GCCGTCGC	-0.0785
ACGCTTTA	-0.0723
TAATCTGA	-0.00734
CGATTTCC	0.214
CAGGTCAC	-0.325
AACTTGAG	-0.189
ATGTGCTA	0.0811
AGTAACTC	0.0741
GTCCCACA	0.00972
CATCCACA	-0.102
CGACCATC	-0.147
ATCACGAT	-0.147
GTAGTACA	-0.0299
ACGCTAAG	-0.241

Sequence	PBM E-score
GGACAGGA	-0.0567
GTGTGAAA	0.198
ATCGAAGG	-0.0327
GAAACTCC	0.00864
CTTTTATC	0.073
ATTTCGAA	0.164
CTTGTCCC	0.161
GGTGAAAC	0.127
GTACGAGA	-0.1
TCAGATCA	-0.00186
ACATGACC	-0.203
AGTAAGAC	0.0443
ACGCAGAG	-0.0456
GGTTAAGA	0.13
CAGGCGAC	-0.191
AGTGTGGG	-0.114
AATGCTAA	-0.0204
AGCAAAGG	-0.0842
GGCGATTA	0.0843
CGACGCTA	0.0118
CTATATGC	0.1
AGCCGAGG	0.336
AATTTGAA	0.147
CCGATAAG	0.155
GATCTAGC	-0.195

Some of the entries so far, in markdown.

| Sequence | PBM E-score |
| --- | --- |
| TCTGTCAA | 0.0885 |
| TACTAGAA | 0.0468 |
| ATCTCGTA | -0.0757 |
| CGAAATAC | 0.185 |
| GGCTCTAA | 0.0329 |
| AGCAAATA | 0.0468 |
| CAAGGGTC | -0.0734 |
| AGGTCAAG | -0.0601 |
| GGTATGAA | 0.0476 |
| GGGTTGCA | -0.136 |
| ATTATATC | 0.0923 |
| GAGCCCAA | -0.103 |
| CATGCACC | -0.206 |
| CTCGAGTC | -0.113 |
| GGCAGATA | 0.114 |
| CCCACCGA | -0.117 |
| CTATCTGA | -0.172 |
| ACGCTTTA | -0.0723 |
| TAATCTGA | -0.00734 |
| CGATTTCC | 0.214 |
| ATGTGCTA | 0.0811 |
| AGTAACTC | 0.0741 |
| GGACAGGA | -0.0567 |
| GTGTGAAA | 0.198 |
| GAAACTCC | 0.00864 |
| ATTTCGAA | 0.164 |
| CTTGTCCC | 0.161 |
| TCAGATCA | -0.00186 |
| ACATGACC | -0.203 |
| AGTAAGAC | 0.0443 |
| ACGCAGAG | -0.0456 |
| CAGGCGAC | -0.191 |
| AGTGTGGG | -0.114 |
| CTATATGC | 0.1 |
| AGCCGAGG | 0.336 |
| AATTTGAA | 0.147 |

Following part:

Sequence	PBM E-score
CTAGTATC	0.113
ACATGTTA	0.0413
AACATACT	0.112
TAACACCA	0.00327
CATAAGCA	-0.0964
GCTTATAA	0.171
ACCGCAGA	-0.105
TCTCGAGA	0.0945
AGGTCTAT	-0.173
AGATCAAT	0.042
AATACTCA	0.194
ACGACAGT	-0.126
TACGCGCA	0.0925
AGTCTGGC	-0.184
CGAACATC	0.0614
GTCCCAGA	-0.215
AAGGCTGG	-0.308
CCCAAAAG	0.0271
CTCACGAC	-0.164
AGTGGAGA	-0.0137
ATAGTGGC	-0.153
ATAGGGGG	-0.223
AGCCTTAG	-0.00942
AGGTGTGC	-0.232
ACATTATG	0.15

Sequence	PBM E-score
GATTGAAA	0.112
CCTCAGAG	-0.346
CCCGTGCA	-0.0846
TTCCCAAA	0.104
CAACGCCA	-0.147
CATGCTGA	-0.0909
ATCCGGCC	0.358
CTTGACAC	-0.0608
GCCCTATA	-0.0877
TAAAAAGA	0.189
ACGTGCGC	-0.00474
AAGGAACG	0.032
ATCATACG	0.134
AGCCGCCG	0.277
ATACTGAA	0.034
AACACCTG	-0.0186
ATACGAGC	0.0989
CATACTGG	-0.0226
GTTCTGTA	0.0334
ACTTCAGG	0.0127
AGAACATA	0.113
CTTAACGC	-0.0695
ACCCCAGG	-0.388
CTGGAACC	-0.0329
AGTCAGAT	-0.21

Sequence	PBM E-score
AACCAGCT	-0.101
CGTTGACC	-0.107
GAAGCATC	-0.162
CAGCTGGC	-0.0716
CCAATGGA	-0.124
ACGACGAC	-0.182
GCTCGTCC	-0.118
GAACATCA	-0.00891
CAGTGCGC	-0.318
ATGTGTAA	-0.131
AGGCTATG	-0.173
CGTGATTA	0.164
GAGTTAAC	0.0766
CCAGGCGC	-0.113
CGGAATCC	0.182
CTCGTGCA	-0.0196
CGCGATAC	-0.142
AATCCATA	-0.0274
CCACGTCG	-0.205
AGAATCAC	0.0544
GCTTACTA	0.0742
ACAACGGG	0.00646
CCAGGCTA	-0.312
CGACTAGA	-0.0598
ACTCACCG	-0.0284

Sequence	PBM E-score
ACAAGAAA	0.228
ACCAGGAC	0.00892
AGGCGAGA	-0.244
AGAATGAG	-0.0972
CGTAGGAC	-0.108
GACACAAA	0.187
CCTTTCTA	0.0542
CAGGCTCG	0.0173
TCACGTGA	0.0867
CTAACTAC	0.0824
GTCCCAAA	-0.0356
GCGACTCA	-0.207
GGAACAAA	0.247
GAAAATTA	0.0819
CATTTGAC	-0.00846
GTAGGACA	0.129
CCGACGGA	0.257
ACGGCAAT	0.28
CTTGAGCA	-0.144
GCGCTCAC	-0.0674
ACAATGGG	-0.0301
AGTATAAA	0.365
